Experimental data taken from article PMC3107242.
No constants are given. Whether binding was seen depends on the method and setting. Binding seen in cells or lysates may run through a third protein. A yes stands for co-enrichment or nearness to the bait. Other partners may have been found.

By UniProt entry, the sequences of proteins in these tests, tags left out. Residues count along the entry.
UniProt P45975, residues 1-152: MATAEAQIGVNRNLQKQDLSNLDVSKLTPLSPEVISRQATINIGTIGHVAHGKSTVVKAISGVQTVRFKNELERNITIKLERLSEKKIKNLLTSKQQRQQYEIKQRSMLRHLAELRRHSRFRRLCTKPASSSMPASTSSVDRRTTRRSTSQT
UniProt P19109: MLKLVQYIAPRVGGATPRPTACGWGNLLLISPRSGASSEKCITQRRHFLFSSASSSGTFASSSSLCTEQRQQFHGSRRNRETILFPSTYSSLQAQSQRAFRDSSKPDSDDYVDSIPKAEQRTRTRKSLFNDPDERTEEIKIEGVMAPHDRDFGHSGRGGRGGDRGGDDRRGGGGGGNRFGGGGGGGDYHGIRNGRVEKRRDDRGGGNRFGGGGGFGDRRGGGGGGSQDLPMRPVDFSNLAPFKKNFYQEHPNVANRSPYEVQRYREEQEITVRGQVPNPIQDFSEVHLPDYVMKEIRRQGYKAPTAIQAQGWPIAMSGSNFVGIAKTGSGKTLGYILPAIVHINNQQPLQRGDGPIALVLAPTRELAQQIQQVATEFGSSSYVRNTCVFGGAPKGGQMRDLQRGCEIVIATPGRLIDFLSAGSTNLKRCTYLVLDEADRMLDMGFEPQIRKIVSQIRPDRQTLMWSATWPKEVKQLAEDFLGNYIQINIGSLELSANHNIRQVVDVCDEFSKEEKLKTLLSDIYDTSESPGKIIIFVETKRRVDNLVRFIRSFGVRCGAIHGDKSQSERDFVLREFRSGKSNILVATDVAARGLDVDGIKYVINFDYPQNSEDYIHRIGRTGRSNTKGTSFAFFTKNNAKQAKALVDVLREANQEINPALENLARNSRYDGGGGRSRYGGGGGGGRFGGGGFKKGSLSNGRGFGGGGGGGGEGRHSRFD

Target: GST SU(VAR)3-9 NT (aa 1–152) (Drosophila melanogaster) (UniProt P45975)
Assay: affinity purification with mass spectrometry; GST SU(VAR)3-9 NT on a GSTrap FF column connected behind a GST column; Drosophila 0–12 h embryo nuclear extract loaded; wash 200 mM NaCl, 20 mM Tris-HCl pH 8.0, 1 mM EDTA, 0.5% Nonidet P-40; step elution 250, 500 and 750 mM; stained band cut out for mass spectrometry; only the target purified

binding: binds
Substance: Rm62 (endogenous, Drosophila embryo nuclear extract) (from UniProt P19109 1-719)
